The shares of active, inactive and inconclusive entries below differ from those in the screen. Potencies of inconclusive entries are doubtful fits and often do not repeat. Activity calls are given as the source filed them.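 How the source made its calls: active means compounds whose IC50 for blocking JMJD2E demethylation is below 100 µM; inconclusive means dose dependent effect but IC50 above 100 µM; inactive means the rest.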
What follows are compounds tested against Lysine-specific demethylase 4E (Homo sapiens) (UniProt B2RXH2) (assay: MALDI-TOF-MS Assay for Inhibitors of Human Jumonji Domain Containing 2E (JMJD2E)). Conditions: recombinant JMJD2E demethylation.
Text: The fine interplay among methylation states of several lysine residues on the tails of histone proteins is a major determinant of the transcriptional state of the associated DNA coding regions and is commonly referred to as the histone code. Histone lysine demethylases catalyze the removal of methyl groups from methylated lysine sidechains on histones H3 and H4, thus antagonizing the reactions catalyzed by histone lysine methyltransferases. […] In search for novel inhibitors of JMJD2E demethylase, a member of the largest set of histone demethylases belonging to the Fe(II) and 2-oxoglutarate oxygenase (2OG) superfamily, we performed a quantitative high-throughput screen (Inglese 2006). See AID 2147 for details on the primary screen. The assay here is a secondary MALDI-TOF-MS (Matrix-assisted laser desorption-ionization time-of-flight mass spectrometry) confirmatory screen used to qualify hit series for further optimization but not to drive structure activity relationships (SAR). References: Inglese, J., Auld, D., Jadhav, A., Johnson, R., Simeonov, A., Yasgar, A., Zheng, W. and Austin, C. Proc Natl Acad Sci USA 2006, 103, 11473-11478. N. R. Rose, S. S. Ng, J. Mecinovic, B. M. Lienard, S. H. Bello, Z. Sun, M. A. McDonough, U. Oppermann and C. J. Schofield, J Med Chem, 2008, 51, 7053-7056. Sakurai, M., Rose, N., Schultz, L., Quinn, A., Jadhav, A., Ng, S., Oppermann, U., Schofield, C.J. and Simeonov, A. Mol BioSystems 2009, in press. S. Michael, D. Auld, C. Klumpp, A. Jadhav, W. Zheng, N. Thorne, C. Austin, J. Inglese and A. Simeonov, Assay Drug Dev Technol, 2008, 6, 637-657. Assay Provider: Structural Genomics Consortium [SGC] Screening Center PI: Austin, C.P. Screening Center: NIH Chemical Genomics Center [NCGC]
For the MS assays, JMJD2E (2 uM), FAS (10 uM) and SA (100 uM) in HEPES buffer, 50 mM, pH 7.5, were incubated with inhibitor (stock solutions in DMSO, final in-assay concentration varied, but final DMSO concentration was 5% of assay mix) for 15 min at room temperature. Disodium 2OG (10 uM) and peptide (10 uM) were added, and the mixture was incubated for 30 min at 37 °C, before 1:1 quenching with methanol followed by addition of four volumes of 20 mM triammonium citrate. The diluted assay mixture (1 uL) was then mixed with alpha-cyano-4-hydroxycinnamic acid (the MALDI-TOF-MS matrix, 1uL) and spotted onto a MALDI-TOF-MS plate before analysis. The relative intensities of different methylation states observed in the mass spectra were then used to calculate percentage demethylation, and IC50s were calculated from the variation in percentage demethylation at different inhibitor concentrations.

Protein sequences, listed by entry. Tags and fused reporters are not part of them. Residues count along the entry.
UniProt B2RXH2, 1-337 limits assumed: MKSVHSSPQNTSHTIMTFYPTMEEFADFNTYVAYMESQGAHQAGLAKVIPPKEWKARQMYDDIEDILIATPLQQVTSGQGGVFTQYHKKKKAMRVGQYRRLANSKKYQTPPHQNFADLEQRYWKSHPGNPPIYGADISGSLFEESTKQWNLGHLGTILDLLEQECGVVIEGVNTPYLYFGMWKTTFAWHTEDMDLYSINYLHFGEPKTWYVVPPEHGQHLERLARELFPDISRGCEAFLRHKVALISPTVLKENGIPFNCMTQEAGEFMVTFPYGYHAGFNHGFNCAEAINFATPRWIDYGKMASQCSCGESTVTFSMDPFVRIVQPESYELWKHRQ

SMILES | Potency
Oc1ccc(CNc2ccc(F)cc2F)c2cccnc12 | active: 42 µM
CN(C)CCCNc1cc(O)c2ncccc2c1 | inconclusive: 130 µM [inhibitor]
Oc1ccc(CNc2ccccc2C(F)(F)F)c2cccnc12 | active: 11.2 µM
Oc1cc(NCc2ccc(Cl)cc2)cc2cccnc12 | inconclusive: 316 µM [inhibitor]
Oc1cc(NCCN2CCOCC2)cc2cccnc12 | active: 25.6 µM
Oc1cc(NCCc2cccnc2)cc2cccnc12 | inconclusive: 168 µM [inhibitor]

From PubChem BioAssay AID2688 (National Center for Advancing Translational Sciences (NCATS), 2010)
